# The other results are listed elsewhere or left out. The main result of the screen is listed elsewhere. These columns were measured beside it and carry no call. For some of these results: Most of these compounds were active or inconclusive in the main read-out, so they are no random draw. Potencies come from curve fits of mixed quality, noted in brackets.
# Protein sequences, listed by entry. Tags and fused reporters are not part of them. Lines headed by an entry give the natural chain unless they say otherwise; changes in a name come on top.
# UniProt P21964: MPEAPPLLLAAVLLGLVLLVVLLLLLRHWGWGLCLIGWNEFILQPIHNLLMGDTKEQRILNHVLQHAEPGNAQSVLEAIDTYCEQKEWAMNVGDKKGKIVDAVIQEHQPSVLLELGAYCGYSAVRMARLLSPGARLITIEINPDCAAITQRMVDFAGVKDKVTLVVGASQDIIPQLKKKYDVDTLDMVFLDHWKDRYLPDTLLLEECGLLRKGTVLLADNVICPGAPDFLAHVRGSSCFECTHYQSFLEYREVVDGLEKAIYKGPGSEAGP
# UniProt P11086: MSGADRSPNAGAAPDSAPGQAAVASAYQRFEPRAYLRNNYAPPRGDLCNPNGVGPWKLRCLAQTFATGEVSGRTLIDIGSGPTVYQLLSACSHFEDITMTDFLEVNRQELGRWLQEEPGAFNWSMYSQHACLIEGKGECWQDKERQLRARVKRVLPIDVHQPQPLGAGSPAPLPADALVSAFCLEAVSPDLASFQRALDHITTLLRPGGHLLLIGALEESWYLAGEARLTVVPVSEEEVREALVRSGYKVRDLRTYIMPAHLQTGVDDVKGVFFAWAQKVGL
# How the values were obtained:
# [1] = S16 Schwann cell PMP22 intronic element beta-lactamase assay (AID 624044); settings: S16 rat Schwann cells, PMP22 element beta-lactamase FRET, 24 h; measured here: 530 nm viability channel
# Outline: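 Rat S16 Schwann cells with beta-Lac driven by a PMP22 intronic element, compound-treated 24 h at 37 °C. LiveBLAzer FRET B/G read: 460 nm normalized to potassium clavulanate vs DMSO; 535 nm FRET as viability; concentration-effect curves classified.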
# [2] = target: Catechol O-methyltransferase (Homo sapiens) (UniProt P21964); assay: Confirmatory Screen for Target Class Profiling of Small Molecule Inhibitors of Methyltransferases (AID 1745852); settings: MTase-Glo luminescence, SAH detection, recombinant enzyme; measured here: COMT inhibition potency
# [3] = target: Phenylethanolamine N-methyltransferase (Homo sapiens) (UniProt P11086); assay: as above; settings: MTase-Glo luminescence, SAH detection, recombinant enzyme; measured here: PNMT inhibition potency
# [4] = NCATS anti-infectives library activity on the primary C. elegans qHTS viability assay (AID 1745855); settings: C. elegans worm area imaging, day 7; measured here: worm number, day 3
# Outline: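 Viability read-out is GFP fluorescence of PE254-GFP-FLuc C. elegans, measured by laser cytometry (488 nm) at day 0, 3 and 7. Ten L1 worms per well were incubated 7 days at 21 °C with compounds and bacterial capsules in S medium.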
# [5] = A High-Content qHTS Against Drug Library for the Identification of Small Molecules that Inhibit DYT1 Early Onset Primary Dystonia-Associated Cell Pathology (AID 1645839); settings: HEK293 Flp-In EGFP-delE TorsinA, punctate imaging, 48 h; measured here: cell count cytotoxicity
# Outline: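 Flp-In T-REx 293 cells with tetracycline-inducible EGFP-delE hTOR1A (WT EGFP-hTOR1A as reference), 800 cells/well; compound added with tetracycline, 48 h at 37 C. Fixed, permeabilized cells imaged; %pathology (punctate TorsinA) primary, cell count counterscreen.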
# [6] = qHTS for identification of novel therapeutic agents for treatment of microphthalmiaassociated transcription factor (MiT) renal cell carcinoma (RCC) (AID 1963991); settings: CellTiter-Glo, 48 h; for z-score: stronger effect = lower value
# Outline: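 Three TFE3-fusion RCC cell lines (UOK109, UOK124, UOK145), 500 cells/well, were exposed to the 1912-compound MIPE 4.0 library for 48 hours at 37 C. Viability was read by CellTiter-Glo luminescence, normalised to DMSO (100%) and empty wells (0%), with 11-concentration curve fits.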
# [7] = qHTS drug screen for cell cycle checkpoint inhibitors in PARPi-resistant BRCA-mutant ovarian cancer cell lines. (AID 1963452); settings: PEO1/OlaR viability, CellTiter-Glo luminescence, 96 h; measured here: PEO4 viability
# Outline: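 PEO1, PEO4 and PEO1/OlaR ovarian cancer cells, 600 per well, exposed 96 h at 37C to a dilution series. Viability read by CellTiter-Glo luminescence, normalized to DMSO and empty wells; activity summarized as Z-AUC.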
# [8] = qHTS Validation Assay to Find Inhibitors of Chronic Active B-Cell Receptor Signaling (AID 485345); settings: ABC-DLBCL cells, chronic BCR signaling reporter
# Outline: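 TMD8 ABC-DLBCL cells stably carrying doxycycline-inducible IkappaBalpha–green luciferase fusion plus unfused red luciferase; compounds 46 uM to 3 nM, 4 h at 37C with doxycycline. Corrected green/red luminescence ratio normalized to 10 uM MG-132 and basal cell wells; curves fitted.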
# [9] = qHTS Assay for Modulators of Human Peripheral Myelin Protein 22 (PMP22) Expression/Activity (AID 1967); settings: Cell-based PMP22 reporter, dual-color luciferase ratio
# Outline: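 Quantitative HTS in a mouse Schwann cell line expressing dual click beetle luciferases: Pmp22 promoter (green) and control EF-alpha promoter (red). After 24h treatment, corrected green/red signal ratio gave %Activity relative to untreated cells.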
# [10] = TFE3-RCC UOK109 viability, measured here: UOK109 Z-AUC
# [11] = TFE3-RCC viability, measured here: UOK124 Z-AUC
# [12] = TFE3-RCC viability, measured here: UOK124 cell viability
# [13] = TFE3-RCC viability, measured here: UOK145 Z-AUC
# [14] = TFE3-RCC viability, measured here: UOK145 cell viability
# [15] = measured here: CBG/CBR ratio read-out
compound,measurement,setting,value
CCN(CC)CCNc1ccc(CO)c2sc3ccccc3c(=O)c12,AC50,[1],"11.2 µM [rising, full curve]"
Cc1nc(Nc2ncc(C(=O)Nc3c(C)cccc3Cl)s2)cc(N2CCN(CCO)CC2)n1,IC50,[2],"24.1 µM [falling, partial curve]"
same,IC50,[3],"24.1 µM [falling, partial curve]"
Cc1cc(C(C#N)c2ccc(Cl)cc2)c(Cl)cc1NC(=O)c1cc(I)cc(I)c1O (stereo not given),IC50,[3],"30.4 µM [falling, partial curve]"
O=C(Nc1ccccc1)OCC(CN1CCCCC1)OC(=O)Nc1ccccc1 (stereo not given),AC50,[4],"2.3 µM [falling, partial curve, poor fit]"
CN(C)CCCN1c2ccccc2Sc2ccccc21,AC50,[4],"0.728 µM [falling, full curve, poor fit]"
O=C(Nc1cccc2c(=O)cc(-c3nn[nH]n3)oc12)c1ccc(OCCCCc2ccccc2)cc1,AC50,[5],"17.8 µM [falling, partial curve, poor fit]"
same,z-score,[6]; [10],0.0499
same,z-score,[6]; [11],-0.096
same,AC50,[6]; [12],"29.6 µM [falling, single point]"
same,z-score,[6]; [13],0.138
COc1cc(C(C)=O)ccc1OCCCN1CCC(c2noc3cc(F)ccc23)CC1,AC50,[5],"39.8 µM [falling, partial curve, poor fit]"
same,z-score,[6]; [10],-0.141
same,z-score,[6]; [11],0.0417
same,AC50,[6]; [12],"33.2 µM [falling, single point]"
same,z-score,[6]; [13],0.343
CCC(C)n1ncn(-c2ccc(N3CCN(c4ccc(OC[C@H]5CO[C@](Cn6cncn6)(c6ccc(Cl)cc6Cl)O5)cc4)CC3)cc2)c1=O (stereo not given in full),AC50,[5],"0.631 µM [falling, full curve, poor fit]"
same,z-score,[6]; [10],-0.609
same,z-score,[6]; [11],-0.302
same,AC50,[6]; [12],"2.09 µM [falling, full curve]"
same,z-score,[6]; [13],-0.502
same,AC50,[6]; [14],"2.64 µM [falling, full curve]"
CN1C[C@H]2c3ccccc3Oc3ccc(Cl)cc3[C@@H]2C1,AC50,[5],"1.12 µM [falling, full curve, poor fit]"
same,z-score,[6]; [10],0.217
same,z-score,[6]; [11],0.0174
same,z-score,[6]; [13],-0.0732
O=C(CCCN1CCN(c2ccc(F)cc2)CC1)NC1c2ccccc2CSc2ccccc21 (stereo not given),AC50,[5],"11.2 µM [falling, partial curve, poor fit]"
same,z-score,[6]; [10],0.582
same,z-score,[6]; [11],0.489
same,AC50,[6]; [12],"9.35 µM [falling, partial curve]"
same,z-score,[6]; [13],0.428
same,AC50,[6]; [14],"13.2 µM [falling, partial curve, poor fit]"
CN(C)CCN(Cc1ccc(Cl)cc1)c1ccccn1,AC50,[5],"35.5 µM [falling, single point]"
same,z-score,[6]; [10],0.692
same,z-score,[6]; [11],0.236
same,AC50,[6]; [12],"23.5 µM [falling, single point]"
same,z-score,[6]; [13],0.245
Cc1ccc(-n2[nH]c(C)c(N=Nc3cccc(-c4cccc(C(=O)O)c4)c3O)c2=O)cc1C,AC50,[5],"1.58 µM [falling, partial curve, poor fit]"
same,AC50,[7],"0.871 µM [falling, full curve, poor fit]"
same,z-score,[6]; [10],0.498
same,z-score,[6]; [11],0.25
same,AC50,[6]; [12],"20.9 µM [falling, partial curve]"
same,z-score,[6]; [13],0.308
same,AC50,[6]; [14],"16.6 µM [falling, partial curve]"
CC(C)OC(=O)C(C(=O)OC(C)C)=C1SC=CS1,AC50,[5],"35.5 µM [rising, single point]"
same,z-score,[6]; [10],0.86
same,z-score,[6]; [11],0.366
same,AC50,[6]; [12],"20.9 µM [falling, partial curve, poor fit]"
same,z-score,[6]; [13],0.481
CNCC[C@H](Oc1cccc2ccccc12)c1cccs1,AC50,[5],"7.08 µM [falling, partial curve]"
same,z-score,[6]; [10],-1.02
same,z-score,[6]; [11],0.448
same,AC50,[6]; [12],"20.9 µM [falling, partial curve]"
same,z-score,[6]; [13],-0.51
same,AC50,[6]; [14],"7.43 µM [falling, full curve]"
O=C1Cc2cc(CCN3CCN(c4nsc5ccccc45)CC3)c(Cl)cc2N1,AC50,[8]; [15],"18.4 µM [falling, partial curve]"
same,AC50,[8]; measured here: CBR control luciferase (viability counter),"29.1 µM [falling, single point]"
same,AC50,[5],"3.55 µM [falling, full curve, poor fit]"
same,z-score,[6]; [10],0.159
same,z-score,[6]; [11],0.288
same,AC50,[6]; [12],"33.2 µM [falling, single point]"
same,z-score,[6]; [13],0.436
Fc1ccc([C@@H]2CCNC[C@H]2COc2ccc3c(c2)OCO3)cc1,AC50,"[9]; measured here: green reporter channel AC50, mouse Pmp22 promoter in mouse Schwann cells","19 µM [falling, full curve]"
same,AC50,"[9]; measured here: red reporter channel AC50, EF-alpha promoter control reporter in MSC80 mouse Schwann cells","26.9 µM [falling, full curve]"
same,AC50,[8]; [15],"16.4 µM [falling, single point]"
same,AC50,[5],"35.5 µM [falling, single point]"
same,z-score,[6]; [10],0.307
same,z-score,[6]; [11],0.408
same,AC50,[6]; [12],"18.7 µM [falling, partial curve]"
same,z-score,[6]; [13],-0.104

# Copied from the entries so far (4 entries):
compound,measurement,setting,value
Cc1ccc(-n2[nH]c(C)c(N=Nc3cccc(-c4cccc(C(=O)O)c4)c3O)c2=O)cc1C,AC50,[7],"0.871 µM [falling, full curve, poor fit]"
same,z-score,[6]; [10],0.498
same,z-score,[6]; [11],0.25
same,AC50,[6]; [12],"20.9 µM [falling, partial curve]"

# From PubChem BioAssay (NCATS)
